Measurements reported in PubChem BioAssay AID743121 (NCATS, 2013)
In all, the deposit lists about 26,000 reagents; shown is a random part of them. In the full data, 167 (0.63%) are marked active. 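Calls are per gene from RSA p-values that are not deposited; an individual active-marked siRNA can sensitise only weakly.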 Unmarked entries are inactive. The numbers tell different reagents against one gene apart. Not all columns of the deposit are shown.

Aim: 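Genes whose silencing strengthens cell killing by camptothecin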 (primary screen)
Cells: MDA-MB-231 cells, a human breast cancer line
Reagent: single siRNA against human genes, 20 nM siRNA (0.8 pmol per well)
Timing: 120 h (drug added 48 h after transfection, read 72 h later)
Treatment: camptothecin 20 nM (about EC30) for 72 h; vehicle 0.1% DMSO in parallel plates
Read-out: 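Cell viability by ATP luminescence (CellTiter-Glo) as % of non-targeting siRNA wells, and the log2 ratio of viability without drug over viability with camptothecin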
Direction: log2 vehicle/camptothecin viability: higher = stronger sensitisation to camptothecin; viability with camptothecin: higher = more viable cells
Units: viability with camptothecin in % of control
Active means: 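Each gene scored by redundant siRNA activity (RSA) over its individual siRNA ratios; a gene is called active at p < 0.001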

RAB2B #1 | log2 vehicle/camptothecin viability = 0.351; viability with camptothecin = 58.1
RAB2B #2 | log2 vehicle/camptothecin viability = 0.0493; viability with camptothecin = 77.3
RAB2B #3 | log2 vehicle/camptothecin viability = -0.243; viability with camptothecin = 91.2
RAB2B #4 | log2 vehicle/camptothecin viability = -0.00485; viability with camptothecin = 32.9
TAL2 #1 | log2 vehicle/camptothecin viability = 0.0707; viability with camptothecin = 73.1
TAL2 #2 | log2 vehicle/camptothecin viability = -0.335; viability with camptothecin = 77.4
TAL2 #3 | log2 vehicle/camptothecin viability = -0.102; viability with camptothecin = 47.2
CTNNA1 #1 | log2 vehicle/camptothecin viability = -0.416; viability with camptothecin = 93.2
CTNNA1 #2 | log2 vehicle/camptothecin viability = -0.184; viability with camptothecin = 47.3
CTNNA1 #3 | log2 vehicle/camptothecin viability = 0.00652; viability with camptothecin = 91.1
CTNNA1 #4 | log2 vehicle/camptothecin viability = -0.456; viability with camptothecin = 89.9
INHA #1 | log2 vehicle/camptothecin viability = -0.45; viability with camptothecin = 63.6
INHA #2 | log2 vehicle/camptothecin viability = -0.187; viability with camptothecin = 120
INHA #3 | log2 vehicle/camptothecin viability = 0.654; viability with camptothecin = 33.6
INHA #4 | log2 vehicle/camptothecin viability = -0.316; viability with camptothecin = 55.7
GPR39 #1 | log2 vehicle/camptothecin viability = -0.194; viability with camptothecin = 95.2
GPR39 #2 | log2 vehicle/camptothecin viability = 0.0583; viability with camptothecin = 90.4
GPR39 #3 | log2 vehicle/camptothecin viability = -0.134; viability with camptothecin = 42.2
GPR39 #4 | log2 vehicle/camptothecin viability = -0.372; viability with camptothecin = 104

Next part, starting with the last 2 of the part before.
GPR39 #3 | log2 vehicle/camptothecin viability = -0.134; viability with camptothecin = 42.2
GPR39 #4 | log2 vehicle/camptothecin viability = -0.372; viability with camptothecin = 104
HACE1 #1 | log2 vehicle/camptothecin viability = 0.258; viability with camptothecin = 85.4
HACE1 #2 | log2 vehicle/camptothecin viability = -0.21; viability with camptothecin = 86.7
HACE1 #3 | log2 vehicle/camptothecin viability = -0.236; viability with camptothecin = 109
HACE1 #4 | log2 vehicle/camptothecin viability = 0.366; viability with camptothecin = 15
SCT #1 | log2 vehicle/camptothecin viability = -0.215; viability with camptothecin = 88.6
SCT #2 | log2 vehicle/camptothecin viability = 0.114; viability with camptothecin = 78.9
SCT #3 | log2 vehicle/camptothecin viability = -0.0277; viability with camptothecin = 64.3
AKR1C1 #1 | log2 vehicle/camptothecin viability = 0.28; viability with camptothecin = 54.4
AKR1C1 #2 | log2 vehicle/camptothecin viability = 0.165; viability with camptothecin = 63.5
AKR1C1 #3 | log2 vehicle/camptothecin viability = -0.0344; viability with camptothecin = 80.2
AKR1C1 #4 | log2 vehicle/camptothecin viability = 0.494; viability with camptothecin = 47.7
AKR1C1 #5 | log2 vehicle/camptothecin viability = -0.0793; viability with camptothecin = 94
PATJ #1 | log2 vehicle/camptothecin viability = -0.453; viability with camptothecin = 80.1
PATJ #2 | log2 vehicle/camptothecin viability = -0.289; viability with camptothecin = 72.7
PATJ #3 | log2 vehicle/camptothecin viability = 1.18; viability with camptothecin = 13.6
PATJ #4 | log2 vehicle/camptothecin viability = 0.0568; viability with camptothecin = 84.7
HUS1 #1 | log2 vehicle/camptothecin viability = -0.161; viability with camptothecin = 58.5
HUS1 #2 | log2 vehicle/camptothecin viability = 0.143; viability with camptothecin = 99.3
HUS1 #3 | log2 vehicle/camptothecin viability = -0.106; viability with camptothecin = 86.5
HUS1 #4 | log2 vehicle/camptothecin viability = 0.0852; viability with camptothecin = 104
GPS1 #1 | log2 vehicle/camptothecin viability = 0.147; viability with camptothecin = 33.7
GPS1 #2 | log2 vehicle/camptothecin viability = 0.0939; viability with camptothecin = 94.8
GPS1 #3 | log2 vehicle/camptothecin viability = 0.542; viability with camptothecin = 42.2
GPS1 #4 | log2 vehicle/camptothecin viability = 0.183; viability with camptothecin = 60.1
RNF141 #1 | log2 vehicle/camptothecin viability = -0.219; viability with camptothecin = 111
RNF141 #2 | log2 vehicle/camptothecin viability = -0.471; viability with camptothecin = 51
RNF141 #3 | log2 vehicle/camptothecin viability = -0.456; viability with camptothecin = 36.6
